Assay results: patent publication US12595504B2, “Methods for screening compounds for bactericidal activity and for determining the sensitivity of bacterial samples” (priority 2020, dated 2026)
Where two headings read alike, the source gives them in different places.

Test system: E. coli MG1655 reporter cells
Type: cell-based, Escherichia coli
Method: The classical luciferase was from Molecular Probes (ATP Determination Kit (A22066)). The thermostable luciferase was from “CheckLite AT100” (kikkoman). The Luciferin-luciferase reagents were prepared following manufacturer instructions. Bacteria from exponentially growing cultures (OD600=0.3) were added to each well (60 μl/well) of a black 96-microtiter plate (Greiner Bio-one, 655076) and 20 μl of the luciferin-luciferase reagent solution was added. The microtiter plate was incubated 5 min at 37° C. for reaction with the luciferase to eliminate traces of extracellular ATP. Then 40 μl of antibiotic solution (3 times concentrated) prepared in the culture medium were added. Bioluminescence of each well was monitored for 4 hours under shaking (218 rpm) and at 28 or 37° C., depending on the experiments (see legends of Figures). The reagent stability in presence or absence of antibiotics was checked in control experiments without bacteria but with 4 pmoles of ATP. Tests were also performed in 384-microtiter plates (Greiner Bio-one, 784076).
Aminoglycosides are bactericidal antibiotics causing translational miscoding with lethal consequences for the cell. Leakage of small molecules following an aminoglycoside shock was previously identified by different methods including radiolabelling. Therefore, the inventors investigated the response of live cells to aminoglycoside stress.

[1] = (lag at MIC minus plateau lag) relative to total lag amplitude, MG1655 E. coli, OD600 of 0.15, medium LB, 37° C.

## NCC[C@H](O)C(=O)N[C@@H]1C[C@H](N)[C@@H](O[C@H]2O[C@H](CN)[C@@H](O)[C@H](O)[C@H]2O)[C@H](O)[C@H]1O[C@H]1O[C@H](CO)[C@@H](O)[C@H](N)[C@H]1O [Amikacin]
[1]
  Value of parameter X (%): 23.4%

## CC1(C)S[C@@H]2[C@H](NC(=O)[C@H](N)c3ccc(O)cc3)C(=O)N2[C@H]1C(=O)O [Amoxicillin]
[1]
  Value of parameter X (%): 8.5%

## CC1(C)S[C@@H]2[C@H](NC(=O)[C@H](N)c3ccccc3)C(=O)N2[C@H]1C(=O)O [Ampicillin]
[1]
  Value of parameter X (%): 3.5%

## CN[C@@H]1[C@@H](O[C@H]2O[C@H](CO)[C@@H](N)[C@H](O)[C@H]2O)OC2C[C@@H](N)[C@@H](O[C@H]3[C@H](O)[C@@H](O)[C@H](N)C[C@@H]3N)OC2[C@@H]1O (some centres unmarked) [Apramycin]
[1]
  Value of parameter X (%): 0%

## CO[C@@]1(NC(=O)Cc2cccs2)C(=O)N2C(C(=O)O)=C(COC(N)=O)CS[C@@H]21 [Cefoxitin]
[1]
  Value of parameter X (%): 0.1%

## CO/N=C(\C(=O)N[C@@H]1C(=O)N2C(C(=O)O)=C(CSc3nc(=O)c(=O)[nH]n3C)CS[C@H]12)c1csc(N)n1 [Ceftriaxone]
[1]
  Value of parameter X (%): 2.1%

## CC1=C(C(=O)O)N2C(=O)[C@@H](NC(=O)[C@H](N)c3ccccc3)[C@H]2SC1 [Cephalexin]
[1]
  Value of parameter X (%): 0.6%

## C[C@@H]1O[C@@H]1P(=O)(O)O [Fosfomycin]
[1]
  Value of parameter X (%): 21.6%

## CCn1cc(C(=O)O)c(=O)c2ccc(C)nc21 [Nalidixic acid]
[1]
  Value of parameter X (%): 5.6%

## [H]/N=C(/N)N[C@H]1[C@H](O)[C@@H](O)[C@H](O[C@@H]2O[C@@H](C)[C@](O)(C=O)[C@H]2O[C@@H]2O[C@@H](CO)[C@H](O)[C@@H](O)[C@@H]2NC)[C@@H](N/C(N)=N\[H])[C@@H]1O [Streptomycin]
[1]
  Value of parameter X (%): 1.6%

## Cc1c(N)nc([C@H](CC(N)=O)NC[C@H](N)C(N)=O)nc1C(=O)N[C@H](C(=O)N[C@H](C)[C@@H](O)[C@H](C)C(=O)N[C@H](C(=O)NCCC1=N[C@@H](c2nc(C(=O)NCCCCN=C(N)N)cs2)CS1)[C@@H](C)O)[C@@H](O[C@@H]1O[C@@H](CO)[C@@H](O)[C@H](O)[C@@H]1O[C@H]1O[C@H](CO)[C@@H](O)[C@H](OC(N)=O)[C@@H]1O)c1cnc[nH]1 [Zeocin]
[1]
  Value of parameter X (%): 23.7%

## Bleomycin
[1]
  Value of parameter X (%): 19.8%

## Gentamicin
[1]
  Value of parameter X (%): 0%

## Neomycin
[1]
  Value of parameter X (%): 2.3%
Media MH, OD600 at 0.015
  Value of parameter X (%): 12.8%
Media MH, OD600 at 0.15
  Value of parameter X (%): 8.8%
Media MH, OD600 at 0.3
  Value of parameter X (%): 21.8%
